Record: PubChem BioAssay AID652259 (Drosophila RNAi Screening Center, 2013)

Screen: 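Knock-downs that push a Wingless-driven reporter up or down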 (primary screen)
Cells: Drosophila clone 8 imaginal disc epithelial cells
Reagent: long dsRNA against Drosophila genes
Challenge: pathway stimulated by co-transfected Wingless expression plasmid
Read-out: 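Dual luciferase reads per well after Wingless plasmid stimulation: reporter firefly light and Renilla control light; activity is firefly divided by Renilla, a ratio not deposited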
Scale: firefly reporter light: higher = more Wg reporter light, before normalisation; Renilla control light: higher = more transfected or surviving cells
Call rule: 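Strong candidates differ from their plate mean by at least two out of four per-plate statistical tests; weak candidates meet just one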
Calls: active = candidate regulator (raises or lowers reporter); inactive = not a candidate
The deposit covers about 22,000 reagents; shown is a random part of those with a known target gene and a result. In the full data, 233 (1.1%) are marked active. 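Light values are raw, unnormalised plate reads; the ratio scores behind the reporter calls were not deposited.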 A number with no mark means an inactive call. Reagents against one gene are numbered here. Names joined by + are all predicted targets of the reagent. The record does not give: the amount of reagent, the time to read-out, the dose of the treatment.

Silencing of insv (insensitive) gave: firefly reporter light, replicate 1 = 2352; firefly reporter light, replicate 2 = 4647; Renilla control light, replicate 1 = 1170; Renilla control light, replicate 2 = 2977.
Depletion of CG14315 came out at: firefly reporter light, replicate 1 = 16432; Renilla control light, replicate 1 = 4060.
CG1628 scored firefly reporter light, replicate 1 = 3639; firefly reporter light, replicate 2 = 5504; Renilla control light, replicate 1 = 1224; Renilla control light, replicate 2 = 2314.
Knock-down of CG32112 came out at: firefly reporter light, replicate 1 = 6375; Renilla control light, replicate 1 = 3413.
Against cnk (connector enhancer of ksr), the values are firefly reporter light, replicate 1 = 9927; Renilla control light, replicate 1 = 2801.
For rols (rolling pebbles) #1, the entry reads firefly reporter light, replicate 1 = 6950; Renilla control light, replicate 1 = 2224.
Silencing of rols (rolling pebbles) #2 resulted in: firefly reporter light, replicate 1 = 6100; Renilla control light, replicate 1 = 2427.
Depletion of rols (rolling pebbles) #3 came out at: firefly reporter light, replicate 1 = 5463; Renilla control light, replicate 1 = 2163.
Silencing of ft (fat) gave: firefly reporter light, replicate 1 = 11895; Renilla control light, replicate 1 = 5787.
For CG14410, the entry reads firefly reporter light, replicate 1 = 20167; Renilla control light, replicate 1 = 10321.
With knock-down of CG12863, the record shows firefly reporter light, replicate 1 = 6896; Renilla control light, replicate 1 = 3475.
With knock-down of yellow-g2, the screen gave reporter change call, replicate 1 = Wg reporter activity lowered; firefly reporter light, replicate 1 = 4455; Renilla control light, replicate 1 = 2403.
Against CR43670 + CR43671 + CR43669 #1, the entry reads firefly reporter light, replicate 1 = 15760; Renilla control light, replicate 1 = 9191.
CR43670 + CR43671 + CR43669 #2 showed firefly reporter light, replicate 1 = 27624; Renilla control light, replicate 1 = 14428.
Against CG14000 + bchs, the values are firefly reporter light, replicate 1 = 1847; firefly reporter light, replicate 2 = 6208; Renilla control light, replicate 1 = 656; Renilla control light, replicate 2 = 1383.
Shrm (Shroom) #1 gave firefly reporter light, replicate 1 = 4883; Renilla control light, replicate 1 = 873.
Silencing of Shrm (Shroom) #2 gave: firefly reporter light, replicate 1 = 6208; Renilla control light, replicate 1 = 1302.
With knock-down of Shrm (Shroom) #3 the results were firefly reporter light, replicate 1 = 12774; Renilla control light, replicate 1 = 3095.
After knock-down of Cep135 (Centrosomal protein 135kDa) #1, the record shows firefly reporter light, replicate 1 = 2608; Renilla control light, replicate 1 = 1180.
Silencing of Cep135 (Centrosomal protein 135kDa) #2 resulted in: firefly reporter light, replicate 1 = 4739; Renilla control light, replicate 1 = 2332.
Against Lsp1alpha (Larval serum protein 1 alpha) the deposit lists firefly reporter light, replicate 1 = 17778; Renilla control light, replicate 1 = 8922.
For EMRE (Essential MCU regulator) the deposit lists reporter change call, replicate 1 = Wg reporter activity lowered (active); firefly reporter light, replicate 1 = 3570; Renilla control light, replicate 1 = 3255.
ND-B22 (NADH dehydrogenase (ubiquinone) B22 subunit) gave firefly reporter light, replicate 1 = 3382; firefly reporter light, replicate 2 = 9577; Renilla control light, replicate 1 = 1104; Renilla control light, replicate 2 = 3221.
Knock-down of CG13321 gave: firefly reporter light, replicate 1 = 5588; Renilla control light, replicate 1 = 1264.
After knock-down of jeb (jelly belly) #1, the screen gave firefly reporter light, replicate 1 = 6540; Renilla control light, replicate 1 = 2469.
jeb (jelly belly) #2 showed firefly reporter light, replicate 1 = 5904; Renilla control light, replicate 1 = 3172.
Against RpS26 (Ribosomal protein S26), the entry reads firefly reporter light, replicate 1 = 2001; firefly reporter light, replicate 2 = 3312; Renilla control light, replicate 1 = 845; Renilla control light, replicate 2 = 1671.
CG34196 showed firefly reporter light, replicate 1 = 20216; Renilla control light, replicate 1 = 12524.
scny (scrawny) #1 gave firefly reporter light, replicate 1 = 2595; Renilla control light, replicate 1 = 1344.
For scny (scrawny) #2, the values are firefly reporter light, replicate 1 = 1757; firefly reporter light, replicate 2 = 7589; Renilla control light, replicate 1 = 689; Renilla control light, replicate 2 = 1061.
Against CG7203, the values are firefly reporter light, replicate 1 = 4547; firefly reporter light, replicate 2 = 4629; Renilla control light, replicate 1 = 1186; Renilla control light, replicate 2 = 2649.
Knock-down of galectin came out at: firefly reporter light, replicate 1 = 2449; firefly reporter light, replicate 2 = 5939; Renilla control light, replicate 1 = 1027; Renilla control light, replicate 2 = 2763.

Called active (from the list above):
EMRE (Essential MCU regulator) — reporter change call, replicate 1: Wg reporter activity lowered (active); firefly reporter light, replicate 1: 3570; Renilla control light, replicate 1: 3255
